Among all 73,000 compounds or so, about 350 (0.48%) were called active. Not shown: some 17% with an inconclusive outcome. Calls follow the shape of the dose curve; as a rule, active = well fitted activation curve with a large enough effect in the main read-out, with a control signal flat (not every such curve was filed as active); inconclusive = small, poorly fitted or top-dose-only effect, or a change in a side signal; inactive = no such curve, though single readings can be large or run the other way; % of control where 0% means no effect. The entries are a selection whose mix differs from that of the whole data set. Where no call is shown, the source filed none.

Sequences of proteins named here, by UniProt entry; tags and fusion partners are left off.
UniProt P16473, whole entry, looked up: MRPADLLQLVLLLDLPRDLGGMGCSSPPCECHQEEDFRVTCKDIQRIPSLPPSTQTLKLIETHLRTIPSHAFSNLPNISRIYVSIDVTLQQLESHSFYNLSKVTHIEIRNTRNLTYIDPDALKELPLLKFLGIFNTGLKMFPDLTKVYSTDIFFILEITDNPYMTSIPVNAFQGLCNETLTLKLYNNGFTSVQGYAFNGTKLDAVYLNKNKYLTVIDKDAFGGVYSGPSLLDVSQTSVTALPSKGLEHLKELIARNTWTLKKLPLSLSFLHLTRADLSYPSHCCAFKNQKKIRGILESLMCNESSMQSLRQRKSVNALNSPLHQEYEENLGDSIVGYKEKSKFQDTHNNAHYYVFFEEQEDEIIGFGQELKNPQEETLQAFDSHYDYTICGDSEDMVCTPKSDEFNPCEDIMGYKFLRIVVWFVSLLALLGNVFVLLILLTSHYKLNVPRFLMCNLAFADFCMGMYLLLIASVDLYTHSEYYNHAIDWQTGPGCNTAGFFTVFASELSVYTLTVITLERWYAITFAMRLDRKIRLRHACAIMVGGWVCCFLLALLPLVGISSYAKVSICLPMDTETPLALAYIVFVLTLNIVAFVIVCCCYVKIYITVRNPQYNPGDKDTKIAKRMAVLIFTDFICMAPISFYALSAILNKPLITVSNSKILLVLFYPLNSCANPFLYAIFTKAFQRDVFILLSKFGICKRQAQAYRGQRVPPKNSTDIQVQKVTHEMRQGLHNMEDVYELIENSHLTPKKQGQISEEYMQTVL

The test addresses Thyrotropin receptor (Homo sapiens) (UniProt P16473). Put plainly: qHTS Assay for Agonists of the Thyroid Stimulating Hormone Receptor. The settings on record: HEK293-CNG-TSHR cells (CNG channel as cAMP sensor), membrane potential dye, cAMP; at 57.1 µM (top of the series). The text has this:
NIH Chemical Genomics Center [NCGC]
NIH Molecular Libraries Screening Centers Network [MLSCN]
PI Name: Dr. Marvin Gershengorn, NIH
Thyroid Stimulating Hormone Receptor
TSH is an alpha/beta heterodimeric glycoprotein hormone secreted from the anterior pituitary gland which belongs to the glycoprotein hormone family. The actions of TSH are mediated by a seven-transmembrane receptor, which upon TSH binding couples preferentially to the G-alpha (s) protein (Gs), resulting in activation of adenylate cyclase and increase in cyclic adenosine 3', 5' monophosphate (cAMP). The TSH receptor (THSR) is mainly expressed in thyroid follicular cells and regulates their growth and function. Recombinant TSH is used to activate TSHR in patients with thyroid cancer receiving thyroid hormone suppression therapy and to screen for residual tumor after surgery, but it is expensive and must be administered intramuscularly. An orally active small molecule TSHR agonist would serve as an invaluable research tool for studying TSHR pharmacology and physiology, and would have multiple advantages in therapeutic settings. However, no selective small molecule agonist of the TSH receptor exists, and no small molecule screen for TSHR agonists has ever been reported.
This cell based assay utilized a cyclic nucleotide gated ion channel (CNG) as a biosensor for cAMP induction by potential TSHR agonists.
HEK 293 cells stably expressing the TSHR as well as a modified CNG were purchased from BD biosciences. Stimulation of cAMP production causes the CNG to open and subsequent membrane depolarization to occur. A fluorescent membrane potential dye (BD biosciences) was utilized to detect cAMP stimulation in TSHR cells.
The cells were maintained in DMEM medium (Invitrogen) containing 10 % FBS (Hyclone), 100 units/ml Penicillin, 100 ug/ml Streptomycin (Invitrogen), and 250 ug/ml Geneticin (Invitrogen) and 1 ug/ml Puromycin (Invitrogen) at 37C in 5% CO2. HEK 293 cells expressing CNG but without TSHR (parental cells) were used in concert to control for compounds signaling through endogenous receptors and targets of HEK 293 cells.
NCGC Assay Protocol Summary:
High Throughput Screening. Freshly passaged cells (TSHR or parental) were dispensed into 1536-well assay plates at 4 ul/well in DMEM containing phenol red (Invitrogen), 10% FCS (Hyclone), and 100 units/ml Penicillin, 100 ug/ml Streptomycin (Invitrogen) and incubated at 37 C with 5% CO2 for 20 to 36 hrs before the robotic screening. The screen was initiated by addition of 4 ul/well membrane potential dye containing 100 uM RO 20-1724 (Sigma Aldrich), followed by 60 min incubation at room temperature to allow for dye equilibration across the cell membrane. 23 nl/well compound or control was then added to the assay plates, which were incubated for additional 30 min before reading a Envision fluorescence plate reader (Perkin Elmer) in bottom-read mode for fluorescence intensity (emission at 590 nm).
Keywords: Thyroid-stimulating hormone TSH, TSHR, TSHR agonist, quantitative high throughput screening, qHTS, HTS, probe identification, CNG, cAMP, cyclic nucleotide gated ion channel PubChem
(In qHTS, concentration-response curves come from the screen itself.)
Turning to `COc1cccc(-c2cncnc2Nc2ccccc2)c1`, the activation worked out at 30.3%.
The result for `CCC(O)OC(O)CC` (configuration not stated) reads inactive: 2.29%.
As to `C[C@@H](C(=O)N[C@@H](CO)Cc1ccccc1)[C@@H]1C[C@@]1(C)[C@@H](NC(=O)OCc1ccccc1)c1ccccc1`, the activation was inactive: 17.6%.
With `CCOC(=O)C1CCN(c2c(Nc3ccc4c(c3)OCCO4)c(=O)c2=O)CC1`, the activation is inactive: -38.5%.
As for `CCCN1C(=O)/C(=C2\SC(N3CCCCC3)=NC2=O)c2ccccc21`, the activation is inactive: -63.2%.
Regarding `CCc1nnc(NS(=O)(=O)c2ccc(NC(=O)OC)cc2)s1`, the activation was determined as 30.8%.
`CCN1CCCC1Cn1c(-c2ccccc2)nc2c(N3CCOCC3)nc(C)nc21` (configuration not stated): the activation is 45.1%.
